Results from patent US20150258072A1, “Antibacterial compositions” (WOCKHARDT LIMITED, priority 2012, published 2015).
At least one compound was matched to its structure with a doubt left.

Tested on: K. pneumoniae B 43 strain producing SHV and TEM ESBLs
Test: Cidal activity (bacterial count over time)
Format: cell-based
Settings: Table 5

With `C[C@@H](O)[C@H]1C(=O)N2C(C(=O)O)=C(SCCN=CN)C[C@H]12` [Imipenem, imipenem] the “killing (in words)” value was “fails to kill consistently”.
